According to article PMC4627624:
No constants are given. Whether binding was seen depends on the method and setting. Binding seen in cells or lysates may run through a third protein. Some entries that bind do so weakly or less than the wild type.

The chains behind the UniProt entries cited, without tags or fusion partners. Residues count along the entry.
UniProt P03165: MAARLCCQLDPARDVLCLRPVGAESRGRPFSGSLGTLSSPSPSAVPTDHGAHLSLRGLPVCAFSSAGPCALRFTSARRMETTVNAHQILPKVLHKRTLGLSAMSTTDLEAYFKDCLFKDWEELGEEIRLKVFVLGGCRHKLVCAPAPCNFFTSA
UniProt O00206, residues 24-839: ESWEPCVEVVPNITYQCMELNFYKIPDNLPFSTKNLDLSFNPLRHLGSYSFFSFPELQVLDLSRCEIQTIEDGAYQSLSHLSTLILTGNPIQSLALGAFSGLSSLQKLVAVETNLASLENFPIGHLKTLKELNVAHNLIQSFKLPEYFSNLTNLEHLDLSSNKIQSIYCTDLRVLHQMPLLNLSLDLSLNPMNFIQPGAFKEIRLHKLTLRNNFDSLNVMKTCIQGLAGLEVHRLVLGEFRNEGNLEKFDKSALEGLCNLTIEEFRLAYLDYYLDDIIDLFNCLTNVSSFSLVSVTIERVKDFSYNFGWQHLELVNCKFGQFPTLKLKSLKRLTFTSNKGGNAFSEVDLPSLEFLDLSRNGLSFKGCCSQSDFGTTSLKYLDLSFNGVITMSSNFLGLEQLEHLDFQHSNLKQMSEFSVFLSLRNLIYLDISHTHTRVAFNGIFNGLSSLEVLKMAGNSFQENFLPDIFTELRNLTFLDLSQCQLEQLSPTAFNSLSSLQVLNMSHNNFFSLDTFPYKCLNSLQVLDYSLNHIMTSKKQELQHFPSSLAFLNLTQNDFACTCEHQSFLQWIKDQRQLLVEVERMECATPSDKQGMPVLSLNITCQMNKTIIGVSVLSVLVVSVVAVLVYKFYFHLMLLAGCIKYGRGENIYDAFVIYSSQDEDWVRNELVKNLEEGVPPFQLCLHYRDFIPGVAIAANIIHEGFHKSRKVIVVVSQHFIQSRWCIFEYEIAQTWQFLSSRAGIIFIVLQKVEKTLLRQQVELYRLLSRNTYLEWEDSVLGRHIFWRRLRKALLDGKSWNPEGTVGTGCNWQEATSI

Target: HBV X protein (hepatitis B virus (in HepG2.2.15 cells)) (UniProt P03165)
Experiment: co-IP; HepG2.2.15 lysate (20 mmol/L Tris-HCl pH 7.5, 150 mmol/L NaCl, 1 % NP-40, 0.1 % SDS, sodium deoxycholate, 2 mmol/L EDTA), pre-cleared; immunoprecipitated with mouse anti-HBx monoclonal antibody and protein A + G Sepharose beads at 4 °C overnight; Western blot for TLR4; isotype IgG as control

With “toll-like receptor 4 (from UniProt O00206 24-839)” the binding was “binds”.
